Assay results from US20030219427A1, “TPL-2/COT kinase and methods of use” (priority 1998, published 2003).
Results are given in words; binding and its absence hold for the method and conditions named. Some results given as binding are weak or reduced against the parent protein; the word gives no strength.

By UniProt entry, the sequences of proteins in these tests, tags left out. Where a name states a change or a piece, a line headed by the entry shows the natural chain unless it says otherwise.
UniProt P41279: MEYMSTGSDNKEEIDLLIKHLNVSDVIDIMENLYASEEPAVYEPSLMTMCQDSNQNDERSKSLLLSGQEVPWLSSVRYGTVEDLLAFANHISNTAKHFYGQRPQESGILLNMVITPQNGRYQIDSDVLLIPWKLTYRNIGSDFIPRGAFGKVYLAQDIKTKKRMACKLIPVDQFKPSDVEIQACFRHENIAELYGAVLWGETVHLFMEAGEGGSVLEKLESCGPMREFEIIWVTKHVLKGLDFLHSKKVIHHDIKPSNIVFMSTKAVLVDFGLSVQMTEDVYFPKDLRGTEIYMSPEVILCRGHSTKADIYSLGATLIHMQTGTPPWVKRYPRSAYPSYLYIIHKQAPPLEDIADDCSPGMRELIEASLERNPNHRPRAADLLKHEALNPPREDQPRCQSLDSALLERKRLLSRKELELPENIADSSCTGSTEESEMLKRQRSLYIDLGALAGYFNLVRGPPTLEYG

Assays:
[1] = molecular target: T1, p105(369-896) (Homo sapiens (Human)) (UniProt P19838); experiment: anti-Flag purification of the co-expressed complex from Sf9 cells
T1 sequence: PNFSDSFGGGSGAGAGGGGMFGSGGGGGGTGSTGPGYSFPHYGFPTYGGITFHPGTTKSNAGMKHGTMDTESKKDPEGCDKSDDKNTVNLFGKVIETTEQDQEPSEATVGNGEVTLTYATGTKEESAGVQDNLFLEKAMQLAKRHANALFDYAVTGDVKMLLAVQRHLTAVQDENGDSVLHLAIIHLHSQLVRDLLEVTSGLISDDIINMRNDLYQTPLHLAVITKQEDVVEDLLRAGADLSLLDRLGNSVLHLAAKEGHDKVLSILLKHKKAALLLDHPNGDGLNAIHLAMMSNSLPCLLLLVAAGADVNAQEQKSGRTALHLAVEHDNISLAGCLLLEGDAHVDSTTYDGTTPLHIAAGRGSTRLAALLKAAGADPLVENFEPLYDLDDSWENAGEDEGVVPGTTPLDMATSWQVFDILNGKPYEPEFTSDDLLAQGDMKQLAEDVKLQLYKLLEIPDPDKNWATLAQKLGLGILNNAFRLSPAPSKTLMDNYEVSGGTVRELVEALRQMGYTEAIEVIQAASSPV

[2] = molecular target: T1, p105(369-896) (Homo sapiens (Human)); experiment: co-expression in Sf9 cells, purification of the complex from lysates
[3] = molecular target: T2, p105(472-896) (Homo sapiens (Human)) (UniProt P19838); experiment: as above
T2 sequence: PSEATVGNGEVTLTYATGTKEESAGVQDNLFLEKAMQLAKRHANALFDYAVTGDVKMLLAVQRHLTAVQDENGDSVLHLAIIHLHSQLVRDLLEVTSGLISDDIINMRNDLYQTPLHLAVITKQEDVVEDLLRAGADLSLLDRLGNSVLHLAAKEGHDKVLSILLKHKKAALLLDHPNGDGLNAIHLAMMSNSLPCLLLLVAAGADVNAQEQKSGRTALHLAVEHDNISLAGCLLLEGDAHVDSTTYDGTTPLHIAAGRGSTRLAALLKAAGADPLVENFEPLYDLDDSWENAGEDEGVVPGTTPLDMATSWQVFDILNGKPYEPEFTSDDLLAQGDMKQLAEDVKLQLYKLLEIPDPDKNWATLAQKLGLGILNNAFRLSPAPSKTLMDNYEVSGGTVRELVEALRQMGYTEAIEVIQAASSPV

Measured: binding

COT(30-467, D253N) (from UniProt P41279 30-467)
binds: all assays above
